{
  "source": "paper doi:10.1101/2021.11.05.467472",
  "about": "(bioRxiv, 2021)",
  "assay_in_all_cases": "BLI",
  "key": {"[1]": {"molecular_target": "T1, SUMO-S1B (CsoS1B shell protein, SUMO fusion) (H. neapolitanus) (UniProt P45690)", "T1 sequence": "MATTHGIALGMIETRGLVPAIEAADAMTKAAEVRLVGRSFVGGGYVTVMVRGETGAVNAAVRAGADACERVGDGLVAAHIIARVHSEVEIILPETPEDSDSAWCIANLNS"}, "[2]": {"molecular_target": "SUMO-S1D (CsoS1D shell protein, SUMO fusion) (H. neapolitanus) (UniProt D0KZ73)"}, "[3]": {"molecular_target": "T2, SUMO-S4B (CsoS4B shell protein, SUMO fusion) (H. neapolitanus) (UniProt O85044)", "T2 sequence": "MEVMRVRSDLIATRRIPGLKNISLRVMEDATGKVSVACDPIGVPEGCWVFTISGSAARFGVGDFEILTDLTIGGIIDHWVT"}, "[4]": {"molecular_target": "Rubisco with terminal His-tag (bait of the BLI binding screen) (H. neapolitanus) (UniProt O85040)"}},
  "note": "These are yes or no findings as the source states them, for the method shown. For some of these results: Tags and fused reporters may be left off the sequences shown.",
  "data": [
    {"substance": "untagged CsoSCA (carboxysomal carbonic anhydrase, full length) (from UniProt O85042 1-514) (enzyme)", "values": [
      {"measurement": "binding", "setting": "[1]", "value": "no binding (tested: 1 μM)"},
      {"measurement": "binding", "setting": "[2]", "value": "no binding (tested: 1 μM)"},
      {"measurement": "binding", "setting": "[3]", "value": "no binding (tested: 1 μM)"}
    ]},
    {"substance": "ΔNTD_(1-37)CsoSCA (from UniProt O85042 38-514) (domain or fragment)", "values": [
      {"measurement": "binding", "setting": "[4]", "value": "no binding"}
    ]}
  ]
}
